Values of other authors in PMC2748165 (Biochemical pharmacology, 2009).

Chains of the proteins cited; added tags and fusions are not shown.
UniProt P08183, whole entry: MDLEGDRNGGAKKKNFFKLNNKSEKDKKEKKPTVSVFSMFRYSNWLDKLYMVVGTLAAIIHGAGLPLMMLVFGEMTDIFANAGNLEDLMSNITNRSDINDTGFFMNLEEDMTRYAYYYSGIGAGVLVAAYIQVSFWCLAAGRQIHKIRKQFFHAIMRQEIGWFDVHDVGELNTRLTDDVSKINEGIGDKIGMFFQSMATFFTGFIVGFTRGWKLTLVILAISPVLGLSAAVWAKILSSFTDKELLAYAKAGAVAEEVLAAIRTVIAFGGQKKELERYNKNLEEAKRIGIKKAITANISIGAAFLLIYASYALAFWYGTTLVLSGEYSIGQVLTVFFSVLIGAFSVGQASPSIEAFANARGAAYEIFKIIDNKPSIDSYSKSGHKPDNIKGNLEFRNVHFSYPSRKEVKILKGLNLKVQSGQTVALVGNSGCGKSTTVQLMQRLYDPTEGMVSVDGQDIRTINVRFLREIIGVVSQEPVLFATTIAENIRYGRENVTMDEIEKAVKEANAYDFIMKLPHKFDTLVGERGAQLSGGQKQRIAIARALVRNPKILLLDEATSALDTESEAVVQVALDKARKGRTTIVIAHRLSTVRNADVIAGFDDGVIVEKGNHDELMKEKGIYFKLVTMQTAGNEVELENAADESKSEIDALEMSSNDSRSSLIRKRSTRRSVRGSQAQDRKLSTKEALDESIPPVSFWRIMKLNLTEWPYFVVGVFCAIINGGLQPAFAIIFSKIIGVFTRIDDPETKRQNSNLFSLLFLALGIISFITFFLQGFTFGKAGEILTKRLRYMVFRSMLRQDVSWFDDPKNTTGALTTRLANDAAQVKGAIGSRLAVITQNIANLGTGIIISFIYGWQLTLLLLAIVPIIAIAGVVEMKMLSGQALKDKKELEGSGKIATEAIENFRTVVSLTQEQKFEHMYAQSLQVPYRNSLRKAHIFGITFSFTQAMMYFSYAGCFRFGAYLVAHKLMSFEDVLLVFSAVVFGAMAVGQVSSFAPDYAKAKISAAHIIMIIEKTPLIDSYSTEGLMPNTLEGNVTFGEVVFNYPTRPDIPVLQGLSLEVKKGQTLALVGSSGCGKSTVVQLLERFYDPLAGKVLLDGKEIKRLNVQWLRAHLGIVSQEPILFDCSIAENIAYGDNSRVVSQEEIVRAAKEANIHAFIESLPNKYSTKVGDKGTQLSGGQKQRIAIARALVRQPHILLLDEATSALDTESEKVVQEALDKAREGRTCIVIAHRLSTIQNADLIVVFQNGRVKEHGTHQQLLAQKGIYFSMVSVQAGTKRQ

Biological target: P-gp (Homo sapiens, UniProt P08183)
Conditions: human cDNA-P-gp membrane preparations; cited from earlier work

In the case of `CN1CC[C@]23c4c5ccc(O)c4O[C@H]2[C@@H](O)C=C[C@H]3[C@H]1C5` [morphine], the “interaction with P-gp as determined by stimulation of ATP hydrolysis” value is given as “interact/bind to P-gp”.
